# Experimental data as given in patent US6410751B1, “Water soluble tri-substituted 1, 2-dioxetane compounds having increased storage stability, synthetic processes and intermediates” (Lumigen, Inc., priority 1995, dated 2002).
# Experiment: Reagent carryover in capsule chemistry analysis system (TECHNICON IMMUNO 1 TSH method, luminescence detection)
# Conditions: for % Reduction of chemical carryover: relative to LUMIGEN PPD; for Chemical carryover, ppm (peak cps in adjacent test divided by peak cps in test N): signal for the N+1 test (worst case), dioxetanes at the same concentration
# Procedure: The experiments described below were performed on a prototype capsule chemistry analysis system essentially as described by Kumar et al in U.S. Pat. No. 5,399,497, with the detection system configured to measure light emission (luminescence). The method and apparatus comprises feeding a stream of fluid segments through a Teflon tube, where the tube has an isolating layer of fluorocarbon oil on the inner surface. Sample and reagents are aspirated into this tube, and the resulting liquid segments are moved through the tube. Separation steps and washing steps which are required by heterogeneous immunoassay methods were facilitated by means of magnets, which transferred magnetic particles from one aqueous segment to another. The detection system was comprised of a photon counter and a fiber optic read head, in which the fibers were radially arranged around the Teflon tube to maximize the efficiency of light collection.
# The TECHNICON IMMUNO 1® TSH method (Bayer Corporation, Tarrytown, N.Y., USA) was used as a representative immunoassay method for the testing of luminogenic reagents. The method principle involved incubation of a specimen containing the antigen TSH with a first reagent (R1), which contained a fluorescein-labeled antibody, and simultaneously with a second reagent (R2), which contained an antibody-alkaline phosphatase (ALP) conjugate. Each antibody was specific for a different epitope on the TSH antigen, so that formation of a “sandwich” was promoted between these two antibodies and the TSH antigen. Magnetic particles containing bound anti-fluorescein were used to capture the sandwich, and the particles were subsequently washed to remove unbound reagents. The particles were then exposed to the luminogenic reagent, which contained a substrate for ALP, and luminescence was measured.
# R1 (10.4 μl of serum-based solution containing fluorescein-labeled antibody to TSH), R2 (10.4 μl of serum-based solution containing antibody to TSH conjugated with ALP) and S (7.2 μl of serum sample) were aspirated into the second segment. The next two segments (W1 and W2) were comprised of the same wash buffer used above in the MP segment. The fifth segment was R3, of the composition described above, with the key elements being the luminogenic substrate and the luminescence enhancer. The sixth segment was an inter-test buffer (same as the particle buffer described above), which was used to isolate adjacent tests. Magnetic transfers are depicted by the arrows in the FIG. 1. These transfers were facilitated by one of two magnetic transfer assemblies (M1 or M2). After an incubation of 13 minutes, during which sandwich formation occurred, M1 transferred the magnetic particles into the R1+R2+S segment to initiate capture. After an additional period of 6 minutes, M2 transferred the particles into the first wash segment. After an additional period of 12 seconds, M2 transferred the particles into the second wash segment. After another period of 12 seconds, M2 transferred the particles into the R3 segment, and light emission from this segment was detected as the stream of aqueous segments passed back and forth through the luminometer readhead.
# Since the Teflon tube is transparent to light, a problem with light piping (or “optical carryover”) was expected. Specifically, some of the photons emitted from the R3 segment of an adjacent test could enter the Teflon material, propagate down the length of the tube and be scattered into the detector during the measurement of the signal of the test of interest. […] Instead of declining rapidly with distance from test N, peaks of light output were observed centered around the R3 segments of the adjacent test packages, as shown in FIG. 2 of the drawings. In FIG. 2, test N produced a high level of luminescence, approximately 7.5 million counts per seconds (cps). […]
compound,measurement,setting,value
O=C([O-])C(CCOC1(c2cccc(OP(=O)([O-])[O-])c2)OOC12C1CC3CC(C1)CC2C3)C(=O)[O-].[Na+].[Na+].[Na+].[Na+] (stereo not drawn) [Dioxetane 1],% Reduction of chemical carryover,N+1 test,100%
same,"Chemical carryover, ppm (peak cps in adjacent test divided by peak cps in test N)",,0 ppm
"O=C([O-])CCCOC1(c2cccc(OP(=O)([O-])[O-])c2)OOC12C1CC3CC(C1)CC2C3.[Na+].[Na+].[Na+] (stereo not drawn) [Dioxetane 2, [4-(3-carboxypropoxy)-4-(3-phosphoryloxyphenyl)]spiro[1,2-dioxetane-3,2′-tricyclo[3.3.1.1^3,7]-decane]]",% Reduction of chemical carryover,N+1 test,84%
same,"Chemical carryover, ppm (peak cps in adjacent test divided by peak cps in test N)",,260 ppm
"COC1(c2cccc(OP(=O)([O-])[O-])c2)OOC12C1CC3CC(C1)CC2C3.[Na+].[Na+] (stereo not drawn) [LUMIGEN PPD, [4-(methoxy)-4-(3-phosphoryloxyphenyl)]spiro-[1,2-dioxetane-3,2′-tricyclo[3.3.1.1^3,7]-decane], reference compound]",Carryover compared with that observed with CSPD,N+1 test,more than twice as high
same,"Chemical carryover, ppm (peak cps in adjacent test divided by peak cps in test N)",,1640 ppm
